PMC5515986
Results are given in words; binding and its absence hold for the method and conditions named. In cells and extracts the contact can be indirect. Some binding calls cover weakened binding; strength is not graded here. Sequences can lack the tags named with a protein.

Amino acid sequences for entries named in this document (tags omitted). Residues count along the entry.
UniProt O22476, residues 24-1196: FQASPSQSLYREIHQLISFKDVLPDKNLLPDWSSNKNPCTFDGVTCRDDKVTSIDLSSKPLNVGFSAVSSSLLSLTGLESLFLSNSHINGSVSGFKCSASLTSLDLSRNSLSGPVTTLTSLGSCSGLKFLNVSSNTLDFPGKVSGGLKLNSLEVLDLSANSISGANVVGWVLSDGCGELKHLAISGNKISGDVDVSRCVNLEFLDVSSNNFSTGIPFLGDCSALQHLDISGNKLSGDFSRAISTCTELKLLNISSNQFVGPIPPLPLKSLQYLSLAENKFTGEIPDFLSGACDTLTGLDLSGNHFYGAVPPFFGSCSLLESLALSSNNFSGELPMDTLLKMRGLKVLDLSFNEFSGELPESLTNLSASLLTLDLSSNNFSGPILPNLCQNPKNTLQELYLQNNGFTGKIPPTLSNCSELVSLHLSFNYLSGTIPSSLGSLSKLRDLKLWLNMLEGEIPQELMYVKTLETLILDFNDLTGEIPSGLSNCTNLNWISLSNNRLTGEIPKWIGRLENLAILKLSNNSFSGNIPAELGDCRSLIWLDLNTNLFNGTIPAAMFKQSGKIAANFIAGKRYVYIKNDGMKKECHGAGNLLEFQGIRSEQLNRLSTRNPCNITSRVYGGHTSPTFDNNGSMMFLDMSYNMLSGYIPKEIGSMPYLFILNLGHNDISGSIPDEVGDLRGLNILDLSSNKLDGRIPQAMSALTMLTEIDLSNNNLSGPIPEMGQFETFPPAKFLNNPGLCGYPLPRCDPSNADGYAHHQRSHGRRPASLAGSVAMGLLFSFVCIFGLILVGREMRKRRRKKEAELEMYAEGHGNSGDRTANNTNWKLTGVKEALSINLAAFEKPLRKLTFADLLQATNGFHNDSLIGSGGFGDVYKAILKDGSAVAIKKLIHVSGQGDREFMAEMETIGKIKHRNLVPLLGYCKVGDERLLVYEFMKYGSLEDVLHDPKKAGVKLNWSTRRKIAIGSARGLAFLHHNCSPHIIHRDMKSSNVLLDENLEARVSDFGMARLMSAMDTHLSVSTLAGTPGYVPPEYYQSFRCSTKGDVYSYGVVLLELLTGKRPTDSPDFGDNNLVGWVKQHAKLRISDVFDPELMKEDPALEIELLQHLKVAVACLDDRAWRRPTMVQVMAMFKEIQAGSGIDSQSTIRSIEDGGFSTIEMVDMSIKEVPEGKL

Tests used:
[1] = target: T1, FLAG–BIL4 (full-length BIL4 attached to the C-terminus of FLAG, 35S promoter) (Arabidopsis thaliana) (UniProt Q9M1V9); test: co-IP; extract of 7-day-old transgenic Arabidopsis seedlings in 50 mM Tris-HCl pH 7.5, 100 mM NaCl, 2 mM EDTA, 1% CHAPS; FLAG–BIL4 immunoprecipitated with anti-Flag M2 affinity gel at 4 °C for 30 min; blots with anti-GFP and anti-Flag
T1 sequence: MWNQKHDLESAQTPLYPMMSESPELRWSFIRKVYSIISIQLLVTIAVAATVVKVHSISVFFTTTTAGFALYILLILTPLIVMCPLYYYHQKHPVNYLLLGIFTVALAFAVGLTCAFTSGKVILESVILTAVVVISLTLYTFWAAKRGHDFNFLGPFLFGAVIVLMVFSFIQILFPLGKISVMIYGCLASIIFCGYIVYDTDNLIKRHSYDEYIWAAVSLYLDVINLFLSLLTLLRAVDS

[2] = target: T2, BIL4–nEYFP (full-length BIL4 fused to the N-terminal half of enhanced yellow fluorescence protein) (Arabidopsis thaliana) (UniProt Q9M1V9); test: split reporter; BiFC in cultured Arabidopsis cells; nEYFP and cEYFP fusions introduced by Agrobacterium; microscopy 4 days after inoculation
T2 sequence: T1 sequence

“BRI1–GFP (BRI1pro::BRI1–GFP) (from UniProt O22476 24-1196) (receptor)” was tested, and the binding [1] was “binds”.

With “BRI1–cEYFP (full-length BRI1 fused to the C-terminal half of EYFP) (from UniProt O22476 24-1196) (receptor)” the binding [2] was “binds”.

B1: CERK1–cEYFP (receptor, UniProt A8R7E6 24-617)
chain: KCRTSCPLALASYYLENGTTLSVINQNLNSSIAPYDQINFDPILRYNSNIKDKDRIQMGSRVLVPFPCECQPGDFLGHNFSYSVRQEDTYERVAISNYANLTTMESLQARNPFPATNIPLSATLNVLVNCSCGDESVSKDFGLFVTYPLRPEDSLSSIARSSGVSADILQRYNPGVNFNSGNGIVYVPGRDPNGAFPPFKSSKQDGVGAGVIAGIVIGVIVALLLILFIVYYAYRKNKSKGDSFSSSIPLSTKADHASSTSLQSGGLGGAGVSPGIAAISVDKSVEFSLEELAKATDNFNLSFKIGQGGFGAVYYAELRGEKAAIKKMDMEASKQFLAELKVLTRVHHVNLVRLIGYCVEGSLFLVYEYVENGNLGQHLHGSGREPLPWTKRVQIALDSARGLEYIHEHTVPVYVHRDIKSANILIDQKFRAKVADFGLTKLTEVGGSATRGAMGTFGYMAPETVYGEVSAKVDVYAFGVVLYELISAKGAVVKMTEAVGEFRGLVGVFEESFKETDKEEALRKIIDPRLGDSYPFDSVYKMAELGKACTQENAQLRPSMRYIVVALSTLFSSTGNWDVGNFQNEDLVSLMSGR
B1 was tested, and the binding [2] was “no binding”.
